# Reference: the supplement of paper PMC12067093, “Discovery and optimisation of a covalent ligand for TRIM25 and its application to targeted protein ubiquitination” (Chemical Science, 2025)
# Sequences of proteins named here, by UniProt entry; tags and fusion partners are left off. A change or cut given only in a name is not applied to a line headed by its entry.
# UniProt Q6ZW49, whole entry, looked up: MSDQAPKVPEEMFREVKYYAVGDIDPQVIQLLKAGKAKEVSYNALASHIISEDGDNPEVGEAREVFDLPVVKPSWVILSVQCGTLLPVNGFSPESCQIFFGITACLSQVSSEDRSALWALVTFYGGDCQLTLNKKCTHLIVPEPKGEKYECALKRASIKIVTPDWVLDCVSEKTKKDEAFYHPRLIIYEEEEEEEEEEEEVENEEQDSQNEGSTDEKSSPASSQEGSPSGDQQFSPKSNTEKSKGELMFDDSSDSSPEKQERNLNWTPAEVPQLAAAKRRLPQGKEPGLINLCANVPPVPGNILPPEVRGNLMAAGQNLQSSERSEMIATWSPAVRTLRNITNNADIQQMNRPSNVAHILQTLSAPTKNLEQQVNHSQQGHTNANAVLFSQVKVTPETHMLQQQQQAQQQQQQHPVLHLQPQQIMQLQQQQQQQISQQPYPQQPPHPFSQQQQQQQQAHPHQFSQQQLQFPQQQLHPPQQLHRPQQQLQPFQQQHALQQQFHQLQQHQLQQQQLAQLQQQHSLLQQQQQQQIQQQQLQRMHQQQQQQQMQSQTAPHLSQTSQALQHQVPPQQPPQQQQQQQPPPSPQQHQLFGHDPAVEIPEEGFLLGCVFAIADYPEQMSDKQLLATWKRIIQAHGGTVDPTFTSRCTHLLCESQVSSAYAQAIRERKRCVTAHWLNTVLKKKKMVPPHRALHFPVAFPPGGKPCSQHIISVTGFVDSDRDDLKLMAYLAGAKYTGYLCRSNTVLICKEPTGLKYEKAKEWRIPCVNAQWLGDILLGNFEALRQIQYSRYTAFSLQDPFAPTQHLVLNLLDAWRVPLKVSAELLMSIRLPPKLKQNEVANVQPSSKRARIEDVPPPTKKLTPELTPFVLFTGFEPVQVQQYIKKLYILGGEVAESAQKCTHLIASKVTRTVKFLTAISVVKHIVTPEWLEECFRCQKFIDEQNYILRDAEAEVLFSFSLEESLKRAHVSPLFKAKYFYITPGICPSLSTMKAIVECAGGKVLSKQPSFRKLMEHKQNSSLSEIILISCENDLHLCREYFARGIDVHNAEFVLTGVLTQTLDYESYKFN
# UniProt Q53EL6: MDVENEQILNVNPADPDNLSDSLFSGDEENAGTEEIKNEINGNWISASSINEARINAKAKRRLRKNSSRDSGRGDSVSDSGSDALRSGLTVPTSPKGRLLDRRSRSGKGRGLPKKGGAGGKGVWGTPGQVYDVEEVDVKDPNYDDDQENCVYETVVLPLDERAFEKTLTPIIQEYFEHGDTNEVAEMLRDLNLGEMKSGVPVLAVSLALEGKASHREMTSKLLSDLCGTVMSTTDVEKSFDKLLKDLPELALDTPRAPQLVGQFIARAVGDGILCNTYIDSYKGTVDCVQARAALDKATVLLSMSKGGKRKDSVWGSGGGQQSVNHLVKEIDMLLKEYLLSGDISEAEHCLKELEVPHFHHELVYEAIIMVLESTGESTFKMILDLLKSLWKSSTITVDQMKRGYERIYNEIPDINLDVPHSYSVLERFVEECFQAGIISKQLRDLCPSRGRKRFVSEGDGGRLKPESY
# UniProt Q9H0N5: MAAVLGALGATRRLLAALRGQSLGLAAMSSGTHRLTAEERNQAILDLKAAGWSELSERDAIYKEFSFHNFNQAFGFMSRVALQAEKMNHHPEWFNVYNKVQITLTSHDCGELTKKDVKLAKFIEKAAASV
# UniProt Q6L8Q7: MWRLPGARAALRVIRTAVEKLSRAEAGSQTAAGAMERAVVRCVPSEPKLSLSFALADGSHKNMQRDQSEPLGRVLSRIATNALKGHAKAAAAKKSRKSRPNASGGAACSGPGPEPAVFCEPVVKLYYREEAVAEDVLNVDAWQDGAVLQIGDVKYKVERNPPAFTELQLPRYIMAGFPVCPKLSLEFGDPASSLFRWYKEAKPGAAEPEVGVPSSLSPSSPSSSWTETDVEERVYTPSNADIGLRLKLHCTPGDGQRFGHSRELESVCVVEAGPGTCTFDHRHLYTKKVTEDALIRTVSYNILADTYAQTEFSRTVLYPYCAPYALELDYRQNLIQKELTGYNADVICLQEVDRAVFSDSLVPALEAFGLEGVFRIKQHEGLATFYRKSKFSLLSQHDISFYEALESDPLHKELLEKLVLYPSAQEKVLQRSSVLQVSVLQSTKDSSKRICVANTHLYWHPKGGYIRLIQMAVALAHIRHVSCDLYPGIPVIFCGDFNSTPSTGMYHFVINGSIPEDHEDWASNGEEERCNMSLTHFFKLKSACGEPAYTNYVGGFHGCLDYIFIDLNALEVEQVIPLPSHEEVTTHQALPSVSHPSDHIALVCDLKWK
# This is one part of the list.
# Compound: CC1Cc2ccccc2N1C(=O)C1CCCN(C1)C(=O)CCl (mixture of isomers) [TRIM25 ligand 11 (diastereomer mixture)]
# Assay: probe-labelled cysteine peptide fold change vs DMSO (competition) (log2 fold change); higher = less target engagement (more negative = stronger competition)
# Details: THP-1, incubation time: 4 h
# 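Further: competitive chemoproteomic profiling in live THP-1 cells with an iodoacetamide desthiobiotin (IA-DTB) probe, comparing probe-labelled peptide intensities in compound-treated cells against DMSO-treated controls.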
Target,probe-labelled cysteine peptide fold change (10 µM),probe-labelled cysteine peptide fold change (50 µM)
PCNT_O95613_1252_ECEQPIRR (UniProt O95613),0.145,0.134
PAXIP1_Q6ZW49_997_AIVECAGGK (UniProt Q6ZW49),-0.0141,-0.109
PDCD4_Q53EL6_227_LLSDLCGTVMSTTDVEK (UniProt Q53EL6),-0.0152,0.0253
PAXIP1_Q6ZW49_671_CVTAHWLNTVLK (UniProt Q6ZW49),-0.0141,0.132
PCBD2_Q9H0N5_109_VQITLTSHDCGELTK (UniProt Q9H0N5),0.0678,0.111
PDE12_Q6L8Q7_250_LHCTPGDGQR (UniProt Q6L8Q7),-0.143,-0.0772
PCYOX1_Q9UHG3_462_LYYLNGIECAASAMEMSAIAAHNAALLAYHR (UniProt Q9UHG3),0.108,0.171
PCNT_O95613_2278_ADTSLPQTQGPGLLCSPGVSAAALALQWAESPPADDHHVQR (UniProt O95613),-0.206,0.103
